The other results are listed elsewhere or left out.
molecular target: T1, OsSMF1 (Oryza sativa, UniProt Q6ZLB0 1-436); assay: protein-binding microarray (RPBM); PBS, 2% BSA, 51.3 ng/ul salmon testes DNA, 50 uM zinc acetate, 200 nM TF, 25 C, 1 h; high values mean tight binding; conditions: protein: recombinant; tags: N-terminal polyhistidine and DsRed monomer fusion (pET32a); chain copies: 2; label: CyDye5-dUTP incorporated in the synthesized complementary strand; 3' TTTTT single-stranded linker to array surface; dsDNA, one strand shown
T1 sequence: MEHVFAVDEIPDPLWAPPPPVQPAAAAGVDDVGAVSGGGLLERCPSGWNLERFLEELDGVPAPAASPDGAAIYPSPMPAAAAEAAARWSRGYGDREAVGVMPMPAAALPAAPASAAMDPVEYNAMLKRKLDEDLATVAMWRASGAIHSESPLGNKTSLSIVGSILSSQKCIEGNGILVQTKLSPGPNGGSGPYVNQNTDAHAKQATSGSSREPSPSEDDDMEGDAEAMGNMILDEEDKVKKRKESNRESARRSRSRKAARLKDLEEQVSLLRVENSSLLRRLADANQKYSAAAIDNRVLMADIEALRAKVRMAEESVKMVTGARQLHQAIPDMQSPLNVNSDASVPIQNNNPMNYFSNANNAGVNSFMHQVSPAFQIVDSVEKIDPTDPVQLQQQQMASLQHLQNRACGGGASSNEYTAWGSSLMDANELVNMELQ
Procedure, shortened: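 An Axon 4000B scanner gave the binding signal as per-feature fluorescence intensity in arbitrary units. This followed washing of a custom Agilent array that had been incubated for 1 h at 25 °C with 200 nM protein in PBS, 2% BSA, salmon testes DNA and 50 µM zinc acetate. The proteins were transcription factors fused at the N-terminus to polyhistidine and DsRed, expressed in E. coli BL21-CodonPlus and purified on Ni–NTA.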

| Sequence | binding signal |
| --- | --- |
| CTCTGGGCCACGGCCCATGCCCGACGGCCGACGTGTCTCGCGGAGTCACCTAGTGCAG | 6570 fluorescence intensity (a.u.) |
| CAGGTGAGGCCGGCAATGACGTGGTCAGCACTGACGAGTCCGGAGTCACCTAGTGCAG | 8010 fluorescence intensity (a.u.) |
| ACGAGTCGCTGCATTCGATGTGATTACTTCTAAACTATTTCGGAGTCACCTAGTGCAG | 3400 fluorescence intensity (a.u.) |
| GCAGGCAGGAGAGCGAATGGCAGGTCCGGTAATTACGCGGCGGAGTCACCTAGTGCAG | 37200 fluorescence intensity (a.u.) |
| CAACAATCCGTAATCCCGTTGCCACGCCAGATATATCTCGCGGAGTCACCTAGTGCAG | 4030 fluorescence intensity (a.u.) |
| AAATTGACAAGCTCATGGACTCCCCGTAGATCCGCGATTTCGGAGTCACCTAGTGCAG | 4250 fluorescence intensity (a.u.) |
| GCAAGCGAGTTGCGTGACTCGCGTCACTCCTCACCACCACCGGAGTCACCTAGTGCAG | 15200 fluorescence intensity (a.u.) |
| ACAACCTCCAACCGCGCCACATCACTCTATCACAACCTAGCGGAGTCACCTAGTGCAG | 7230 fluorescence intensity (a.u.) |
| TGTGGTTTTCTAGTTAATTAACAAGCTAGCTATACCTAGCCGGAGTCACCTAGTGCAG | 7160 fluorescence intensity (a.u.) |
| AAAGTCAACATCAAAGCAAATCAACTCTTGAAGGAACGACCGGAGTCACCTAGTGCAG | 19200 fluorescence intensity (a.u.) |
| AACCACACGATCGATGCACGTCAAGTATACGCATACTCCGCGGAGTCACCTAGTGCAG | 4140 fluorescence intensity (a.u.) |
| CCCATCTCGCTAGCCGCCGCCGGCCACAACCATTCCTCACCGGAGTCACCTAGTGCAG | 3640 fluorescence intensity (a.u.) |
| TCAGTCCTCCACATGACCCCACCTGTCATCCACATCACCGCGGAGTCACCTAGTGCAG | 8400 fluorescence intensity (a.u.) |
| ATAAAGGGAGAAGTATCATTGACAACGCATAGAGGCTACACGGAGTCACCTAGTGCAG | 3140 fluorescence intensity (a.u.) |
| TCATGCGGAAAACTGGTGTGGAAGGGGCGCGTTTGTGTTGCGGAGTCACCTAGTGCAG | 3940 fluorescence intensity (a.u.) |
| CAAAACCGCACTAGTCACTAGTAGCTCACCTCCAACATTTCGGAGTCACCTAGTGCAG | 3620 fluorescence intensity (a.u.) |
| ATGCCGGTCGCCGGAGCCGGCCACCGTGTACGTGCCAGACCGGAGTCACCTAGTGCAG | 4310 fluorescence intensity (a.u.) |
| GCGCGAGCATCAGCGGTTTTGTTGCGTAACACCGAATGTACGGAGTCACCTAGTGCAG | 7910 fluorescence intensity (a.u.) |
| TTTCTATAAATTGTAATGAAAATAACAAATAAAACTCAAACGGAGTCACCTAGTGCAG | 4500 fluorescence intensity (a.u.) |
| CGCGACACGACACGACACGACACGACGGCACGAGCCCACCCGGAGTCACCTAGTGCAG | 4540 fluorescence intensity (a.u.) |
| ATCCTGTGCAACACGGCAACGCCGGATCCGTGCAAAACCACGGAGTCACCTAGTGCAG | 3410 fluorescence intensity (a.u.) |

Some of the entries above, reformatted:
CAGGTGAGGCCGGCAATGACGTGGTCAGCACTGACGAGTCCGGAGTCACCTAGTGCAG
  binding signal = 8010 fluorescence intensity (a.u.)
GCAGGCAGGAGAGCGAATGGCAGGTCCGGTAATTACGCGGCGGAGTCACCTAGTGCAG
  binding signal = 37200 fluorescence intensity (a.u.)
GCGCGAGCATCAGCGGTTTTGTTGCGTAACACCGAATGTACGGAGTCACCTAGTGCAG
  binding signal = 7910 fluorescence intensity (a.u.)

(continued)

| Sequence | binding signal |
| --- | --- |
| ACTGGCTGAGTCAGCTTGTGGGACCCATATGTCAGTGACACGGAGTCACCTAGTGCAG | 11700 fluorescence intensity (a.u.) |
| CGCCTTGGCCCGACCCACGTCGATGAGCCACACCGGGGTGCGGAGTCACCTAGTGCAG | 3870 fluorescence intensity (a.u.) |
| TTTGATCAGAGATGCATAAGTCATGAATTTTATTTAGGCCCGGAGTCACCTAGTGCAG | 3500 fluorescence intensity (a.u.) |
| GCTAGGGCAGAGGCTAGAGCCACGCACCCTAAATGTCCCACGGAGTCACCTAGTGCAG | 3570 fluorescence intensity (a.u.) |
| ATTAGTATTCCCTCCCATCATTAATATATGACGTTAGTGTCGGAGTCACCTAGTGCAG | 4550 fluorescence intensity (a.u.) |
| TGGATCCTGGCGCGCTCTGCCGCCGCCGCGTCGCCCACGACGGAGTCACCTAGTGCAG | 30200 fluorescence intensity (a.u.) |
| TTTTCCTGTGCGGGTGACGTGGAGCAGCATCGAAATCGAACGGAGTCACCTAGTGCAG | 10200 fluorescence intensity (a.u.) |
| CCCGGACTCCTCATCGGACTCGCCGTCGTAGCGCTCATCCCGGAGTCACCTAGTGCAG | 4400 fluorescence intensity (a.u.) |
| TGTTGCTGTGTCGTGTGGTCGTGACTCGTGTGACTCGGTGCGGAGTCACCTAGTGCAG | 5260 fluorescence intensity (a.u.) |
| CATTAATCCGCTCGATCGCCACGTGATCCTGTTGTGTCTTCGGAGTCACCTAGTGCAG | 4930 fluorescence intensity (a.u.) |
| GCCGTTGTTATGAACGGATACGATACGTGTACCACTTTGTCGGAGTCACCTAGTGCAG | 3340 fluorescence intensity (a.u.) |
| GGCCGTGCCATGCCGTGCCAGCCCTCTACAGTAAACGTGCCGGAGTCACCTAGTGCAG | 3250 fluorescence intensity (a.u.) |
| GCAGGGCCAAGTACGCGCTGCCACCTGACGTGTCGTGGAGCGGAGTCACCTAGTGCAG | 14000 fluorescence intensity (a.u.) |
| CGCGGCTACGGCTGAGCGGAGGCTACTACGGCGGCAGCTGCGGAGTCACCTAGTGCAG | 3540 fluorescence intensity (a.u.) |
| ATAGTAAATTTCGGTACGGTTTATCCTAGTTGGCATTGGCCGGAGTCACCTAGTGCAG | 4070 fluorescence intensity (a.u.) |
| CATTCATGTAAATTGTGTTACATGTCATCTCCATAAGTATCGGAGTCACCTAGTGCAG | 3160 fluorescence intensity (a.u.) |
| TTTTAGAGTATGACACGTGGGTCTCAAAGTTAAGAAAGTGCGGAGTCACCTAGTGCAG | 11500 fluorescence intensity (a.u.) |
| CGCGTTCCGTACGCTCGCGCACCGTCCACGTGGCGCCCCTCGGAGTCACCTAGTGCAG | 26900 fluorescence intensity (a.u.) |
| GAACCCTAGTTCCTCTTTGCCTTTCCGCTTCTCCGCGCCCCGGAGTCACCTAGTGCAG | 3750 fluorescence intensity (a.u.) |
| TCTGATACTCTGATGTCATCATAACACTTAGTCAAACCTACGGAGTCACCTAGTGCAG | 3510 fluorescence intensity (a.u.) |
| GGACACACACCCACACGCGCATCCATCCATCCATCCATCCCGGAGTCACCTAGTGCAG | 3220 fluorescence intensity (a.u.) |
